Data taken from the supplement of paper PMC12889115.
Some of the results follow. Values are raw readings; no control value is given beside them.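 Primary screen: polymyxin B was added at a level permeabilizing Salmonella outer membranes while sparing inner membranes. DMSO wells, both with and without polymyxin B, established maximum growth. Plate-to-plate variation meant each plate was ranked on its own, and the lowest-OD600 compounds were selected as hits.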

Tested on: Salmonella enterica serovar Typhimurium SL1344
Experiment: bacterial growth OD600 after 18 h with compound and polymyxin B; higher = more bacterial growth (less inhibition)
Settings: 50 µM, Mueller-Hinton broth

| Structure (SMILES) | bacterial growth OD600 (polymyxin B 1 µg/mL) | bacterial growth OD600 (polymyxin B 0.75 µg/mL) |
| --- | --- | --- |
| COc1ccc2ccc(OCc3nc(C(=O)N(C)Cc4ccccn4)co3)cc2c1 | 0.996 | – |
| Cc1nc(C(=O)NCc2c(C)ncc3c2CCN(C(=O)C24CC5CC(CC(C5)C2)C4)C3)cs1 | – | 0.972 |
| OC1CCN([C@@H]2CCN(Cc3ccc(F)c(F)c3)C[C@H]2O)CC1 | 0.94 | – |
| Fc1cc(F)cc(CN2CCOc3ccc(CN4CCC(Oc5cccnc5)CC4)cc3C2)c1 | – | 0.104 |
| O=C(Cn1cc2ccccc2n1)NC1CCCc2c1cnn2-c1ccccc1F (stereo unspecified) | – | 0.776 |
| CCC(C)C(=O)N1CCC(C2(C)NC(=O)N(Cc3cccc(OC)c3OC)C2=O)CC1 (stereo unspecified) | – | 0.903 |
| COc1cccc(CC(C2CCN(C(=O)c3ccc(C)nc3)CC2)N(C)C(=O)c2ccsc2)c1 (stereo unspecified) | – | 0.84 |
| C=CCN(CC=C)c1ccc(-c2nc(-c3cccc(OC)c3OC)no2)cn1 | – | -0.016 |
| CCOC(=O)N1CCN(Cc2ccc3c(c2)CN(C(=O)CSc2nncn2C)CCO3)CC1 | – | 0.819 |
| COc1ccc2cc(C(=O)C3CCCN(C(=O)c4snnc4C)C3)ccc2c1 (stereo unspecified) | 0.876 | – |
| Cn1ccnc1CN1CCCC(CCc2c(F)cccc2F)C1 (stereo unspecified) | – | 0.844 |
| Cc1ccc(C(=O)NC2CCCN(CCc3ccccc3)C2)cn1 (stereo unspecified) | – | 0.856 |
| O=C(NCCCn1cccn1)C1(N2CCCCC2)Cc2ccccc2C1 | – | 0.875 |
| COc1cccc(CCC(=O)N2CCC(n3nccc3NC(=O)CC(C)C)CC2)c1 | 0.83 | – |
| O=C(Nc1ccnn1C1CCN(C(=O)CCc2ccc3c(c2)OCO3)CC1)C1CC1 | 0.953 | – |
| COCCN1C(=O)CC(CC(=O)N2CCN(c3ccc(O)cc3)CC2)(c2ccccc2F)C1=O (stereo unspecified) | – | 0.856 |

Part of the list above, as tab-separated lines:
Structure (SMILES)	bacterial growth OD600 (polymyxin B 1 µg/mL)	bacterial growth OD600 (polymyxin B 0.75 µg/mL)
CCOC(=O)N1CCN(Cc2ccc3c(c2)CN(C(=O)CSc2nncn2C)CCO3)CC1	–	0.819
Cn1ccnc1CN1CCCC(CCc2c(F)cccc2F)C1 (stereo unspecified)	–	0.844

Further entries.

| Structure (SMILES) | bacterial growth OD600 (polymyxin B 1 µg/mL) | bacterial growth OD600 (polymyxin B 0.75 µg/mL) |
| --- | --- | --- |
| COCCN1CC(C(=O)N2CCC3(C=Cc4ccccc43)CC2)CCC1=O (stereo unspecified) | 0.817 | – |
| NC(=O)C1(C(=O)NC2CC(=O)N(CCc3cccc(Cl)c3)C2)CC1 (stereo unspecified) | 0.966 | – |
| O=C(NC1CC1)C1CCCN(C2CCN(C(=O)Cc3cccc(F)c3)CC2)C1 (stereo unspecified) | – | 0.833 |
| CCC(NC(=O)c1cc(COc2ccccc2F)[nH]n1)c1ccncc1 (stereo unspecified) | – | 0.981 |
| COc1ccc(OC)c2nc(N3CCOCC3)c(CN(CC3COc4ccccc4O3)C(=O)CCn3ccc(C)n3)cc12 (stereo unspecified) | – | 0.019 |
| O=C(CCC(F)(F)F)NC1CC(=O)N(Cc2ccccc2C(F)(F)F)C1 (stereo unspecified) | 0.944 | – |
| O=C(NCC1CCCN(Cc2ccc(O)cc2)C1)c1ccc(F)cc1 (stereo unspecified) | – | 0.802 |
| CCN(CC)C(=O)C1CCCN(C2CCN(c3nc4ccccc4o3)CC2)C1 (stereo unspecified) | – | 0.937 |
| CCCCC1CN(CCNC(=O)Cc2cc(OC)c(OC)c(OC)c2)Cc2ccccc2O1 (stereo unspecified) | – | 0.731 |
| CC(C)CCNC(=O)C1CCCN(C2CCN(Cc3ccccc3)CC2)C1 (stereo unspecified) | – | 0.837 |
| CCOC(=O)C1(Cc2cccc(OC)c2)CCCN(S(=O)(=O)c2ccc(C)s2)C1 (stereo unspecified) | 0.089 | – |
| CN(C(=O)c1ccccn1)C(Cc1ccccc1)C1CCN(C(=O)c2csc3c2CCCC3)CC1 (stereo unspecified) | – | 0.005 |
| COC(=O)CCC(=O)NC1CCCc2c1cnn2-c1ccc(C)c(C)c1 (stereo unspecified) | – | 0.756 |
| O=C1O[C@@H]2CN(Cc3cccnc3)C[C@@H]2N1CCCc1ccc(F)cc1 | – | 0.873 |
| O=C1CCCN1CC1CCN(c2ccc(-c3nc(C4CC4)no3)cn2)CC1 | 0.908 | – |
